Patent US20010007020A1 (HOECHST AKTIENGESELLSCHAFT, priority 1997, published 2001)

Test: solid-phase peptide synthesis
Details: whole synthesis; for isolated yield: of theory, scale of the general procedure 0.1 mmol
[1] = one disulfide bridge, sequence written open
[2] = scale 0.1 mmol, one disulfide bridge, sequence written open

| Substance | isolated yield [1] | isolated mass [1] [mg] | crude mass [2] [mg] | crude yield [2] [%] | isolated mass [mg] | isolated yield |
| --- | --- | --- | --- | --- | --- | --- |
| DNIDPNAVGNLKCIYNTAGFYCDR-NH2 | 13.5% of theory | 36 | 145 | 54 | – | – |
| DNIDPNAVGNL-NH2 | – | – | – | – | 268 | 67% of theory |
